PubChem BioAssay AID1259254 | NCATS | 2017

- Purpose: 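Genome-wide screen for genes that prevent DNA re-replication in cancer cells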 (primary screen)
- System: human HCT116 colorectal cancer cells
- Reagent: single siRNA against human genes
- Time to read-out: 3 days
- Measurement: 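Nuclei stained with Hoechst and imaged; cell-cycle phase assigned by DNA content; G2 share scaled per plate, non-targeting siRNA 0%, GMNN siRNA 100%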
- Direction: G2 robust z-score and G2 cells, % of GMNN control: higher = more G2 cells, more excess DNA replication
- Active means: 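Active siRNAs have a G2 robust z of 5 or more median absolute deviations over the median, which in these data means about 38% or higher of GMNN control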
In all, the deposit lists about 59,000 reagents; shown is an unselected part. About 1,550 of all reagents (2.6%) count as active. 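G2 share is only a proxy for re-replication; each gene was hit by three separate siRNAs, and active genes were retested.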 The numbers tell different reagents against one gene apart. Not all columns of the deposit are shown. Not given: the amount of reagent.

The first 2 records, to show the layout:
KDM8 #1 → G2 robust z-score = 0.0651; G2 cells, % of GMNN control = 3.43; outcome = inactive
KDM8 #2 → G2 robust z-score = 0.304; G2 cells, % of GMNN control = 5.11; outcome = inactive

The listing, repeating the preview:
KDM8 #1 → G2 robust z-score = 0.0651; G2 cells, % of GMNN control = 3.43; outcome = inactive
KDM8 #2 → G2 robust z-score = 0.304; G2 cells, % of GMNN control = 5.11; outcome = inactive
KDM8 #3 → G2 robust z-score = -0.91; G2 cells, % of GMNN control = -3.44; outcome = inactive
MAGEC1 #1 → G2 robust z-score = 4.21; G2 cells, % of GMNN control = 32.6; outcome = inactive
MAGEC1 #2 → G2 robust z-score = -0.306; G2 cells, % of GMNN control = 0.814; outcome = inactive
MAGEC1 #3 → G2 robust z-score = -0.52; G2 cells, % of GMNN control = -0.692; outcome = inactive
PALD1 #1 → G2 robust z-score = -0.581; G2 cells, % of GMNN control = -1.12; outcome = inactive
PALD1 #2 → G2 robust z-score = 0.0847; G2 cells, % of GMNN control = 3.56; outcome = inactive
PALD1 #3 → G2 robust z-score = -0.307; G2 cells, % of GMNN control = 0.811; outcome = inactive
SHISA6 #1 → G2 robust z-score = 2.24; G2 cells, % of GMNN control = 18.7; outcome = inactive
SHISA6 #2 → G2 robust z-score = -0.437; G2 cells, % of GMNN control = -0.11; outcome = inactive
SHISA6 #3 → G2 robust z-score = 0.186; G2 cells, % of GMNN control = 4.28; outcome = inactive
SLC22A6 #1 → G2 robust z-score = 2.03; G2 cells, % of GMNN control = 17.2; outcome = inactive
SLC22A6 #2 → G2 robust z-score = 5.35; G2 cells, % of GMNN control = 40.6; outcome = active
SLC22A6 #3 → G2 robust z-score = -1.18; G2 cells, % of GMNN control = -5.32; outcome = inactive
RABGGTA #1 → G2 robust z-score = 1.24; G2 cells, % of GMNN control = 11.7; outcome = inactive
RABGGTA #2 → G2 robust z-score = 0.0892; G2 cells, % of GMNN control = 3.59; outcome = inactive
RABGGTA #3 → G2 robust z-score = -0.12; G2 cells, % of GMNN control = 2.13; outcome = inactive
